PubChem BioAssay AID1259254 – NCATS | 2017
Purpose: 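Gene knock-downs that lead to re-replication, shown by excess G2 DNA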 (primary screen). Cells: human HCT116 colorectal cancer cells. Reagent: single siRNA against human genes. Duration: 3 days. Read-out: 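Nuclei stained with Hoechst and imaged; cell-cycle phase assigned by DNA content; G2 share scaled per plate, non-targeting siRNA 0%, GMNN siRNA 100%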. Scale: G2 robust z-score and G2 cells, % of GMNN control: higher = more G2 cells, more excess DNA replication. Active means: 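Active siRNAs have a G2 robust z of 5 or more median absolute deviations over the median, which in these data means about 38% or higher of GMNN control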.
This is a random part of about 59,000 reagents tested. About 1,550 of all reagents (2.6%) count as active. 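G2 share is only a proxy for re-replication; each gene was hit by three separate siRNAs, and active genes were retested.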 The numbers tell different reagents against one gene apart. Further read-outs or replicates are left out here. Reagent sequences are not shown. The record does not give: the amount of reagent.

{"gene symbol": "XPNPEP3 (X-prolyl aminopeptidase 3)", "reagent no.": 1, "G2 robust z-score": -0.0735, "G2 cells, % of GMNN control": 2.45, "activity call": "inactive"}
{"gene symbol": "XPNPEP3 (X-prolyl aminopeptidase 3)", "reagent no.": 2, "G2 robust z-score": 0.525, "G2 cells, % of GMNN control": 6.66, "activity call": "inactive"}
{"gene symbol": "XPNPEP3 (X-prolyl aminopeptidase 3)", "reagent no.": 3, "G2 robust z-score": 0.169, "G2 cells, % of GMNN control": 4.16, "activity call": "inactive"}
{"gene symbol": "MAX (MYC associated transcriptional regulator X)", "reagent no.": 1, "G2 robust z-score": -1.5, "G2 cells, % of GMNN control": -7.57, "activity call": "inactive"}
{"gene symbol": "MAX (MYC associated transcriptional regulator X)", "reagent no.": 2, "G2 robust z-score": -1.24, "G2 cells, % of GMNN control": -5.77, "activity call": "inactive"}
{"gene symbol": "MAX (MYC associated transcriptional regulator X)", "reagent no.": 3, "G2 robust z-score": 0.581, "G2 cells, % of GMNN control": 7.06, "activity call": "inactive"}
{"gene symbol": "CACNG1 (calcium voltage-gated channel auxiliary subunit gamma 1)", "reagent no.": 1, "G2 robust z-score": -0.888, "G2 cells, % of GMNN control": -3.28, "activity call": "inactive"}
{"gene symbol": "CACNG1 (calcium voltage-gated channel auxiliary subunit gamma 1)", "reagent no.": 2, "G2 robust z-score": 0.823, "G2 cells, % of GMNN control": 8.76, "activity call": "inactive"}
{"gene symbol": "CACNG1 (calcium voltage-gated channel auxiliary subunit gamma 1)", "reagent no.": 3, "G2 robust z-score": 2.86, "G2 cells, % of GMNN control": 23.1, "activity call": "inactive"}
{"gene symbol": "OR3A4P (olfactory receptor family 3 subfamily A member 4 pseudogene)", "reagent no.": 1, "G2 robust z-score": -0.978, "G2 cells, % of GMNN control": -3.91, "activity call": "inactive"}
{"gene symbol": "OR3A4P (olfactory receptor family 3 subfamily A member 4 pseudogene)", "reagent no.": 2, "G2 robust z-score": -0.658, "G2 cells, % of GMNN control": -1.66, "activity call": "inactive"}
{"gene symbol": "OR3A4P (olfactory receptor family 3 subfamily A member 4 pseudogene)", "reagent no.": 3, "G2 robust z-score": -0.669, "G2 cells, % of GMNN control": -1.74, "activity call": "inactive"}
{"gene symbol": "PIWIL3 (piwi like RNA-mediated gene silencing 3)", "reagent no.": 1, "G2 robust z-score": -0.34, "G2 cells, % of GMNN control": 0.572, "activity call": "inactive"}
{"gene symbol": "PIWIL3 (piwi like RNA-mediated gene silencing 3)", "reagent no.": 2, "G2 robust z-score": 1.29, "G2 cells, % of GMNN control": 12.1, "activity call": "inactive"}
{"gene symbol": "PIWIL3 (piwi like RNA-mediated gene silencing 3)", "reagent no.": 3, "G2 robust z-score": 2.61, "G2 cells, % of GMNN control": 21.3, "activity call": "inactive"}
{"gene symbol": "CAMLG (calcium modulating ligand)", "reagent no.": 1, "G2 robust z-score": -0.484, "G2 cells, % of GMNN control": -0.438, "activity call": "inactive"}
{"gene symbol": "CAMLG (calcium modulating ligand)", "reagent no.": 2, "G2 robust z-score": 4.7, "G2 cells, % of GMNN control": 36, "activity call": "inactive"}
{"gene symbol": "CAMLG (calcium modulating ligand)", "reagent no.": 3, "G2 robust z-score": -0.728, "G2 cells, % of GMNN control": -2.15, "activity call": "inactive"}
{"gene symbol": "FOXL2 (forkhead box L2)", "reagent no.": 1, "G2 robust z-score": -1.59, "G2 cells, % of GMNN control": -8.19, "activity call": "inactive"}
{"gene symbol": "FOXL2 (forkhead box L2)", "reagent no.": 2, "G2 robust z-score": -0.567, "G2 cells, % of GMNN control": -1.02, "activity call": "inactive"}
{"gene symbol": "FOXL2 (forkhead box L2)", "reagent no.": 3, "G2 robust z-score": 0.779, "G2 cells, % of GMNN control": 8.45, "activity call": "inactive"}
{"gene symbol": "AIM2 (absent in melanoma 2)", "reagent no.": 1, "G2 robust z-score": 0.198, "G2 cells, % of GMNN control": 4.36, "activity call": "inactive"}
{"gene symbol": "AIM2 (absent in melanoma 2)", "reagent no.": 2, "G2 robust z-score": 0.0891, "G2 cells, % of GMNN control": 3.59, "activity call": "inactive"}
{"gene symbol": "AIM2 (absent in melanoma 2)", "reagent no.": 3, "G2 robust z-score": 0.071, "G2 cells, % of GMNN control": 3.47, "activity call": "inactive"}

Entries above whose target name begins with F or f (3):
{"gene symbol": "FOXL2 (forkhead box L2)", "reagent no.": 1, "G2 robust z-score": -1.59, "G2 cells, % of GMNN control": -8.19, "activity call": "inactive"}
{"gene symbol": "FOXL2 (forkhead box L2)", "reagent no.": 2, "G2 robust z-score": -0.567, "G2 cells, % of GMNN control": -1.02, "activity call": "inactive"}
{"gene symbol": "FOXL2 (forkhead box L2)", "reagent no.": 3, "G2 robust z-score": 0.779, "G2 cells, % of GMNN control": 8.45, "activity call": "inactive"}
